Reference: patent EP0538248B1, “[…] OF 1,2,3,3A,8,8A-HEXAHYDRO-1,3A,8-TRIMETHYLPYRROLO [2,3-B]INDOLE” (priority 1990, dated 1992)
For some assays here: The name of at least one read-out is uncertain. For some assays here: At least one structure is not confirmed: it was looked up by name or label, or the drawing left a doubt.

Experiments:
[1] = system: [^3H]norepinephrine release; experiment: [3H]norepinephrine release in vitro; assay type: biochemical, Rat; settings: Compound A at 100 µM
[2] = Oral bioavailability studies (absorption, brain:plasma partition)

| Compound | [^3H]norepinephrine release in vitro [1] | time of Cmax [2] |
| --- | --- | --- |
| CNC(=O)Oc1ccc2c(c1)[C@]1(C)CCN(C)[C@@H]1N2C [physostigmine] | no such effect | – |
| (3aS-cis)-1,2,3,3a,8,8a-hexahydro-1,3a,8-trimethylpyrrolo[2,3-b]indol-5-ol,(1,2,3,4-tetrahydroisoquinolinyl)carbamate [Compound A] | – | 30 min |
